Experimental data taken from PubChem BioAssay AID493014 (National Center for Advancing Translational Sciences (NCATS), 2011).
The list shows a part of the results. These are further read-outs of the screen, such as a control signal, another cell line or another target. No call is given for them. Compounds called inactive in the main read-out are mostly missing here. Words in brackets tell the shape of the fitted curve; partial curves, single points and poor fits give uncertain potencies.

Assay: qHTS Assay to Find Inhibitors of Chronic Active B-Cell Receptor Signaling
Conditions: ABC-DLBCL IkBa-CBG/CBR reporter, luminescence ratio (green luciferase fused to IkBa over red control in TMD8 lymphoma cells), 4 h
How it was run: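 TMD8 human ABC-DLBCL cells with doxycycline-inducible IκBα–green luciferase fusion and unfused red luciferase, in 0.5% FBS medium; compounds up to 46 uM, 4 h at 37C. Green/red luminescence ratio, filter-overlap corrected, fitted to concentration-response curves.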

[1] = measured here: CBR red luminescence, cell number
[2] = measured here: IkBa-CBG green luminescence

Structure (SMILES)	AC50 [1]	AC50 [2]
Cc1cccc(OCc2nnc(SCC(=O)Nc3ccc(C)c(C)c3)o2)c1	7.31 µM [rising, partial curve, poor fit]	–
O=C(O)c1cccc(-c2ccc(/C=N/Nc3ccc([N+](=O)[O-])cc3)o2)c1	0.562 µM [rising, full curve]	–
Cc1ccc(OCC(=O)n2nc(C)cc2C)c(Br)c1	23.1 µM [rising, single point]	–
CCOc1ccccc1NC(=O)CC1Nc2cc(C)c(C)cc2NC1=O (centres undefined)	2.31 µM [falling, partial curve, poor fit]	–
CCN(CC)C(=O)Cn1cc(C(=O)C(=O)N2CCN(c3ccccc3)CC2)c2ccccc21	35.5 µM [falling, single point]	–
O=C(NCC(c1ccco1)S(=O)(=O)c1cccs1)c1ccc(F)c(F)c1 (centres undefined)	6.31 µM [rising, single point]	–
NNC(=O)c1[nH]c2ccccc2c1-c1ccccc1	0.708 µM [rising, partial curve, poor fit]	0.158 µM [falling, full curve, poor fit]
CC(=O)N(C)c1ccc(NC(=O)c2ccc([N+](=O)[O-])cc2Cl)cc1	16.4 µM [rising, partial curve]	–
COc1ccc(CNCc2ccc3ccccc3c2)c(OC)c1	12.6 µM [falling, single point]	–
Cc1ccc(-c2nnc3ccc(SCC(=O)Nc4cc(C)on4)nn23)cc1	1.41 µM [rising, partial curve]	–
O=C(O)CCc1ccc(-c2ccccc2)n1Cc1ccco1	0.184 µM [falling, full curve, poor fit]	–
CCOc1cc(C2NC(=O)NC(O)(C(F)(F)F)C2C(=O)c2ccccc2)ccc1OC (centres undefined)	14.6 µM [rising, single point]	–
COc1ccc(OC)c(C2=NS(=O)(=O)N(C)C(C(=O)Nc3ccc(F)cc3F)=C2)c1	11.2 µM [falling, partial curve]	–
O=C(Nc1cccc(C(F)(F)F)c1)c1cccnc1N1CCN(c2ccccc2)CC1	3.66 µM [falling, full curve]	–
O=C(CCNC(=O)c1ccccc1Cl)Nc1nc(-c2ccccc2Cl)cs1	1.64 µM [falling, full curve, poor fit]	2.91 µM [rising, full curve, poor fit]
COc1cc(NC(=O)CSc2ccc(-c3cccnc3)nn2)cc(OC)c1	14.1 µM [falling, single point]	–
Cc1cc(C)cc(OCC(=O)OCC(=O)NC2CCCCCCC2)c1	25.9 µM [rising, single point]	–

Some of the entries above, reformatted.
Structure (SMILES) | AC50 [1] | AC50 [2]
CCOc1ccccc1NC(=O)CC1Nc2cc(C)c(C)cc2NC1=O (centres undefined) | 2.31 µM [falling, partial curve, poor fit] | –
Cc1ccc(-c2nnc3ccc(SCC(=O)Nc4cc(C)on4)nn23)cc1 | 1.41 µM [rising, partial curve] | –
